Experimental data taken from paper PMC6207756.
No constants are given. Whether binding was seen depends on the method and setting. In cells and extracts the contact can be indirect. Some binding calls cover weakened binding; strength is not graded here.

Amino acid sequences for entries named in this document (tags omitted). Residues count along the entry.
UniProt P0CG63, residues 1-74: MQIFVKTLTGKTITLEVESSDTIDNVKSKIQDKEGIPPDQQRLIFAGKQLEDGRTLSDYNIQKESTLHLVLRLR

Target: Strep-Ub-alkyne (S. cerevisiae) (UniProt P0CG63)
Assay: pull-down; magnetic Strep-Tactin XT beads coupled with purified Strep-Ub-alkyne (4.6 µg), H6-PEX5-Ub-Strep (14 µg) or H6-BRD4-GFP-Strep (14 µg); 35S-labelled in vitro translation products added in buffer C with 2 mM ATP and 4 mM MgCl2; eluted with 50 mM biotin; autoradiography; only the target purified

Binder | binding
^35S-PEX1 (enzyme, UniProt O43933 1-1283) MWGSDRLAGAGGGGAAVTVAFTNARDCFLHLPRRLVAQLHLLQNQAIEVVWSHQPAFLSWVEGRHFSDQGENVAEINRQVGQKLGLSNGGQVFLKPCSHVVSCQQVEVEPLSADDWEILELHAVSLEQHLLDQIRIVFPKAIFPVWVDQQTYIFIQIVALIPAASYGRLETDTKLLIQPKTRRAKENTFSKADAEYKKLHSYGRDQKGMMKELQTKQLQSNTVGITESNENESEIPVDSSSVASLWTMIGSIFSFQSEKKQETSWGLTEINAFKNMQSKVVPLDNIFRVCKSQPPSIYNASATSVFHKHCAIHVFPWDQEYFDVEPSFTVTYGKLVKLLSPKQQQSKTKQNVLSPEKEKQMSEPLDQKKIRSDHNEEDEKACVLQVVWNGLEELNNAIKYTKNVEVLHLGKVWIPDDLRKRLNIEMHAVVRITPVEVTPKIPRSLKLQPRENLPKDISEEDIKTVFYSWLQQSTTTMLPLVISEEEFIKLETKDGLKEFSLSIVHSWEKEKDKNIFLLSPNLLQKTTIQVLLDPMVKEENSEEIDFILPFLKLSSLGGVNSLGVSSLEHITHSLLGRPLSRQLMSLVAGLRNGALLLTGGKGSGKSTLAKAICKEAFDKLDAHVERVDCKALRGKRLENIQKTLEVAFSEAVWMQPSVVLLDDLDLIAGLPAVPEHEHSPDAVQSQRLAHALNDMIKEFISMGSLVALIATSQSQQSLHPLLVSAQGVHIFQCVQHIQPPNQEQRCEILCNVIKNKLDCDINKFTDLDLQHVAKETGGFVARDFTVLVDRAIHSRLSRQSISTREKLVLTTLDFQKALRGFLPASLRSVNLHKPRDLGWDKIGGLHEVRQILMDTIQLPAKYPELFANLPIRQRTGILLYGPPGTGKTLLAGVIARESRMNFISVKGPELLSKYIGASEQAVRDIFIRAQAAKPCILFFDEFESIAPRRGHDNTGVTDRVVNQLLTQLDGVEGLQGVYVLAATSRPDLIDPALLRPGRLDKCVYCPPPDQVSRLEILNVLSDSLPLADDVDLQHVASVTDSFTGADLKALLYNAQLEALHGMLLSSGLQDGSSSSDSDLSLSSMVFLNHSSGSDDSAGDGECGLDQSLVSLEMSEILPDESKFNMYRLYFGSSYESELGNGTSSDLSSQCLSAPSSMTQDLPGVPGKDQLFSQPPVLRTASQEGCQELTQEQRDQLRADISIIKGRYRSQSGEDESMNQPGPIKTRLAISQSHLMTALGHTRPSISEDDWKNFAELYESFQNPKRRKNQSGTMFRPGQKVTLA | binds weakly
^35S-PEX6 (enzyme, UniProt Q13608 1-980) MALAVLRVLEPFPTETPPLAVLLPPGGPWPAAELGLVLALRPAGESPAGPALLVAALEGPDAGTEEQGPGPPQLLVSRALLRLLALGSGAWVRARAVRRPPALGWALLGTSLGPGLGPRVGPLLVRRGETLPVPGPRVLETRPALQGLLGPGTRLAVTELRGRARLCPESGDSSRPPPPPVVSSFAVSGTVRRLQGVLGGTGDSLGVSRSCLRGLGLFQGEWVWVAQARESSNTSQPHLARVQVLEPRWDLSDRLGPGSGPLGEPLADGLALVPATLAFNLGCDPLEMGELRIQRYLEGSIAPEDKGSCSLLPGPPFARELHIEIVSSPHYSTNGNYDGVLYRHFQIPRVVQEGDVLCVPTIGQVEILEGSPEKLPRWREMFFKVKKTVGEAPDGPASAYLADTTHTSLYMVGSTLSPVPWLPSEESTLWSSLSPPGLEALVSELCAVLKPRLQPGGALLTGTSSVLLRGPPGCGKTTVVAAACSHLGLHLLKVPCSSLCAESSGAVETKLQAIFSRARRCRPAVLLLTAVDLLGRDRDGLGEDARVMAVLRHLLLNEDPLNSCPPLMVVATTSRAQDLPADVQTAFPHELEVPALSEGQRLSILRALTAHLPLGQEVNLAQLARRCAGFVVGDLYALLTHSSRAACTRIKNSGLAGGLTEEDEGELCAAGFPLLAEDFGQALEQLQTAHSQAVGAPKIPSVSWHDVGGLQEVKKEILETIQLPLEHPELLSLGLRRSGLLLHGPPGTGKTLLAKAVATECSLTFLSVKGPELINMYVGQSEENVREVFARARAAAPCIIFFDELDSLAPSRGRSGDSGGVMDRVVSQLLAELDGLHSTQDVFVIGATNRPDLLDPALLRPGRFDKLVFVGANEDRASQLRVLSAITRKFKLEPSVSLVNVLDCCPPQLTGADLYSLCSDAMTAALKRRVHDLEEGLEPGSSALMLTMEDLLQAAARLQPSVSEQELLRYKRIQRKFAAC | binds weakly
